## Primary screen of a compound library

The chains behind the UniProt entries cited, without tags or fusion partners. Residues count along the entry.
UniProt Q4DA54, 1-478: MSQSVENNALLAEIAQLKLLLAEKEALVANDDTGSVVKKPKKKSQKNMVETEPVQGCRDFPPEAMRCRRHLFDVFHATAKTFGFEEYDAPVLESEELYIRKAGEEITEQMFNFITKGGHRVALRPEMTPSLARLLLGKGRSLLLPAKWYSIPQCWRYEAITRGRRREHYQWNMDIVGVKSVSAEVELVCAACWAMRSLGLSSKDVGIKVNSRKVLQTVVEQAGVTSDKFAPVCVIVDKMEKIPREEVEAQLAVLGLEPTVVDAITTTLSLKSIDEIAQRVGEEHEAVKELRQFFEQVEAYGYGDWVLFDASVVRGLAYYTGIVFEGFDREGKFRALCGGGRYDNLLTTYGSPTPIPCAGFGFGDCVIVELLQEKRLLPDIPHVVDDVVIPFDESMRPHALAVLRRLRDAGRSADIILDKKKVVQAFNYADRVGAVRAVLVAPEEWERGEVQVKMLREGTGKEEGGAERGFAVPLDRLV
UniProt P9WPC5, whole entry: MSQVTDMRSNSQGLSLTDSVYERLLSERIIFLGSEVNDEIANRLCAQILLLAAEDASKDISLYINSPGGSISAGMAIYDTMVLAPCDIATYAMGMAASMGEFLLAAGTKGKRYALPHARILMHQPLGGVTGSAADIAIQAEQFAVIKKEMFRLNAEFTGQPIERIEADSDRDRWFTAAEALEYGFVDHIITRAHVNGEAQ
UniProt P9WPC3, whole entry partner: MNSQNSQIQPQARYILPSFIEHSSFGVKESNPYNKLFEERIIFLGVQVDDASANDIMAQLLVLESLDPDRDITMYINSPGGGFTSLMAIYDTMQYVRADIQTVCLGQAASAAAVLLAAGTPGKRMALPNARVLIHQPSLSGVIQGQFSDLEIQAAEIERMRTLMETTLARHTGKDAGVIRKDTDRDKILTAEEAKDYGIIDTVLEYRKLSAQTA
UniProt Q8IDJ8, 1-583: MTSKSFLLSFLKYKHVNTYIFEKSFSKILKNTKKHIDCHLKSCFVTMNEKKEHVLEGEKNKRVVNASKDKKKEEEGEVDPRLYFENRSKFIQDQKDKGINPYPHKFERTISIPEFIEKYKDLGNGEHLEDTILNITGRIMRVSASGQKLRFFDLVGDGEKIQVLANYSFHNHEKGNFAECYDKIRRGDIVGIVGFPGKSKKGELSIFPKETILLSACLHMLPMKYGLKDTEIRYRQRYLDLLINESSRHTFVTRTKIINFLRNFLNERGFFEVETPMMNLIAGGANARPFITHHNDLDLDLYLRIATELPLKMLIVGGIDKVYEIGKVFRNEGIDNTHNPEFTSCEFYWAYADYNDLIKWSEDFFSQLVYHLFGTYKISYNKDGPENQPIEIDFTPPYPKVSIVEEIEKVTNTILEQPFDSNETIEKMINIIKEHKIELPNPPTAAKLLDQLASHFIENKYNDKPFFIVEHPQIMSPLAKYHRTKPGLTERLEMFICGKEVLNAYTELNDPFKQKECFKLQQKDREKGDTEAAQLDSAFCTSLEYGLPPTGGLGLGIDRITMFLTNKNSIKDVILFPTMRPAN
UniProt A4I591, 1-473: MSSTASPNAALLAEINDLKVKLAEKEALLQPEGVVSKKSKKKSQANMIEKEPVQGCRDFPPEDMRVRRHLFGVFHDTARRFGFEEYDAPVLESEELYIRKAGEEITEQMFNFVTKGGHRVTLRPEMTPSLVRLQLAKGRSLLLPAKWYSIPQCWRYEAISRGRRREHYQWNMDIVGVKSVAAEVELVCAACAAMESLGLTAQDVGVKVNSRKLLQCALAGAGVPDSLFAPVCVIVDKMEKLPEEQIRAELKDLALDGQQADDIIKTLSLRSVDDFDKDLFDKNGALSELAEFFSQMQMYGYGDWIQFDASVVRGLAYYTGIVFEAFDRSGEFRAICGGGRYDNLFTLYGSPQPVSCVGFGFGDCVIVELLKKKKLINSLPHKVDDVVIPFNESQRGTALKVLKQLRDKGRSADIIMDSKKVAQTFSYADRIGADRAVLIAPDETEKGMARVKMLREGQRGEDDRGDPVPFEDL

Source: ChEMBL document CHEMBL3988442, “University of Dundee, Small-Polar-MMV Screening Library” (2021).

TcHisRS: 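Histidine-tRNA ligase, Trypanosoma cruzi CL Brener (UniProt Q4DA54). Enzyme assay of histidyl-tRNA synthetase; the read-out is not stated. Compounds at 30 µM. Direction is inferred from retests: higher values go with stronger inhibition. Size under these conditions: about 69,000 compounds, about 31 of them at 50% or above in at least one test.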
ClpP1P2: 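ClpP1P2, Mycobacterium tuberculosis (UniProt P9WPC5 and UniProt P9WPC3). Protease assay of ClpP1P2, read by the AMC dye that it sets free. Compounds at 50 µM. Higher reads as stronger inhibition, judged from the few compounds that gave an IC50. Most other retested compounds had strongly negative values. Size under these conditions: about 69,000 compounds, about 10 of them at 50% or above in at least one test.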
PfKRS1: 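Enzyme assay of the cytosolic lysyl-tRNA synthetase in 384-well plates, read by luminescence. Target: Lysine-tRNA ligase, Plasmodium falciparum 3D7 (UniProt Q8IDJ8). Compounds at 30 µM. Higher reads as stronger inhibition, judged from the few compounds that gave an IC50. Of about 69,000 compounds tested this way, about 49 (0.071%) reached 50% or more in at least one test.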
LiHisRS: 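Enzyme assay of histidyl-tRNA synthetase; the read-out is not stated. Target: Histidine-tRNA ligase, Leishmania infantum (UniProt A4I591). Compounds at 30 µM. Higher reads as stronger inhibition (inferred: compounds with an IC50 in retests scored well above the rest). The assay is labelled LdHisRS but filed under L. infantum. About 69,000 compounds were tested under these conditions; 0.6% (about 410) showed 50% or more at least once.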

Results are given as percent effect. The controls that fix the scale are not given in the record; negative values are as filed. The compounds are a random part of those screened.

{"compound": "COCCc1noc(CN(C)c2nccc(C)n2)n1", "TcHisRS": 0.8403, "ClpP1P2": 5.654, "PfKRS1": -0.1863, "LiHisRS": 5.263}
{"compound": "CC(C)CNC(=O)N1CCC2(CCCO2)C1", "stereo": "configuration not stated", "TcHisRS": 1.149, "ClpP1P2": 4.724, "PfKRS1": 4.514, "LiHisRS": 28}
{"compound": "Cc1ccc(C2CN(c3nnc(C(F)F)s3)CCO2)c(C)c1", "stereo": "configuration not stated", "TcHisRS": 0.5525, "ClpP1P2": -9.591, "PfKRS1": 1.45, "LiHisRS": 5.208}
{"compound": "CCN(Cc1nc2c(cnn2C)c(=O)[nH]1)c1cccc(C)c1C", "TcHisRS": 8.081, "ClpP1P2": -4.422, "PfKRS1": 3.51, "LiHisRS": 7.937}
{"compound": "Cn1nc(C2CCNC2)c2c(C(=O)NCC(F)(F)F)cc(C3CC3)nc21", "stereo": "configuration not stated", "TcHisRS": 4.142, "ClpP1P2": -6.668, "PfKRS1": -4.318, "LiHisRS": 12.41}
{"compound": "O=C(O)[C@@H]1CN(C(=O)c2ccc3[nH]nnc3c2)C[C@H]1c1cccc(F)c1", "TcHisRS": 0.8264, "ClpP1P2": -4.711, "PfKRS1": 4.173, "LiHisRS": 13.33}
{"compound": "Cc1ncc(COc2cccc3c2NC(=O)CO3)s1", "TcHisRS": 9.36, "ClpP1P2": -0.6324, "PfKRS1": 4.729, "LiHisRS": 14.29}
{"compound": "CCC(Sc1ncc(CO)n1C)c1ccccc1", "stereo": "configuration not stated", "TcHisRS": 2.299, "ClpP1P2": -5.595, "PfKRS1": 1.351, "LiHisRS": 12.82}
{"compound": "Cc1ccc(CN2CCN(c3cncc(N(C)C)n3)CC2=O)cc1C", "TcHisRS": 15.2, "ClpP1P2": -5.408, "PfKRS1": 5.998, "LiHisRS": 29.51}
{"compound": "CC(C)N(C)Cc1ncn2c1CN(C(=O)C1CCCO1)CCC2", "stereo": "configuration not stated", "TcHisRS": 5.528, "ClpP1P2": -1.303, "PfKRS1": 2.236, "LiHisRS": 13.86}
{"compound": "Cc1nc(N)nc(N2CCOc3ccc(CO)cc3C2)c1C", "TcHisRS": 7.389, "ClpP1P2": -0.1056, "PfKRS1": 3.582, "LiHisRS": 3.947}
{"compound": "COc1cccc(N2CCC(CNC(=O)CN3CSCC3=O)C2)c1", "stereo": "configuration not stated", "TcHisRS": 1.63, "ClpP1P2": 2.168, "PfKRS1": 0.7805, "LiHisRS": -21.33}
{"compound": "Cc1ccc(CNC(=O)CCN2CCN(c3ccccn3)CC2)n1C", "TcHisRS": -11.11, "ClpP1P2": 14.85, "PfKRS1": -10.85, "LiHisRS": 9.524}
{"compound": "COc1c(CNC2CCc3ccccc32)c(C)nn1C", "stereo": "configuration not stated", "TcHisRS": 3.704, "ClpP1P2": -34.07, "PfKRS1": 2.372, "LiHisRS": 13.68}
{"compound": "COc1ccc2cc(CNCc3c(C)nn(C)c3N(C)C)ccc2c1", "TcHisRS": 6.105, "ClpP1P2": -18.35, "PfKRS1": 0.6422, "LiHisRS": 13.16}
{"compound": "CC(C)[C@H](NS(C)(=O)=O)C(=O)NCc1cc(-c2ccccc2)n[nH]1", "TcHisRS": 1.13, "ClpP1P2": 3.308, "PfKRS1": 4.175, "LiHisRS": 17.14}

For reference, 2 entries once more:

compound,TcHisRS,ClpP1P2,PfKRS1,LiHisRS
CC(C)CNC(=O)N1CCC2(CCCO2)C1 (configuration not stated),1.149%,4.724%,4.514%,28%
COc1cccc(N2CCC(CNC(=O)CN3CSCC3=O)C2)c1 (configuration not stated),1.63%,2.168%,0.7805%,-21.33%